The other results are listed elsewhere or left out. The calls rarely recur for the same compound in another form.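 Kinases were expressed as nanoluciferase fusions in K562 cells and luminescence was read every 4 h between 2 and 18 h as percent of control, DMSO set to 100% and a positive control to 0%. A time point counts as decreased when the signal drops significantly (2 sigma). The hit call is the authors' own, does not follow from the count of time points alone, and its rule is not shown.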
Experiments:
Test in all cases: kinase-Nluc reporter destabilization hit call (1 = scored as downregulated) (binary); higher = compound decreases kinase abundance
Settings in all cases: K562; 2-18 h
[1] = molecular target: CDK7 (UniProt P50613)
[2] = molecular target: CDK9 (UniProt P50750)
[3] = molecular target: CHEK2 (UniProt O96017)
[4] = molecular target: CSF1R (UniProt P07333)
[5] = molecular target: CSK (UniProt P41240)
[6] = molecular target: CSNK1A1 (UniProt P48729)
[7] = molecular target: CSNK1D (UniProt P48730)
[8] = molecular target: DDR1 (UniProt Q08345)
[9] = molecular target: DYRK1B (UniProt Q9Y463)
[10] = molecular target: DYRK2 (UniProt Q92630)

The chains behind the UniProt entries cited, without tags or fusion partners. Where a name states a change or a piece, a line headed by the entry shows the natural chain unless it says otherwise.
UniProt P50613: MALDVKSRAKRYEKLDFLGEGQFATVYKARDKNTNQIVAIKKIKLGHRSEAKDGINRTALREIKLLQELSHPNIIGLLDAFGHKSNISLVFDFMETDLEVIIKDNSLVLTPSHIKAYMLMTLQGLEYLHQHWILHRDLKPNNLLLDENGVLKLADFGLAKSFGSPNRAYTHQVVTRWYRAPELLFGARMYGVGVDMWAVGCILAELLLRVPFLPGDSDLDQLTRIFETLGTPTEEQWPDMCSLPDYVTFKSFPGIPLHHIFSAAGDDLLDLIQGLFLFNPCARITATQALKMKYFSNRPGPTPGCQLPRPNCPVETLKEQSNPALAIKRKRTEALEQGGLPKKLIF
UniProt P50750, whole entry: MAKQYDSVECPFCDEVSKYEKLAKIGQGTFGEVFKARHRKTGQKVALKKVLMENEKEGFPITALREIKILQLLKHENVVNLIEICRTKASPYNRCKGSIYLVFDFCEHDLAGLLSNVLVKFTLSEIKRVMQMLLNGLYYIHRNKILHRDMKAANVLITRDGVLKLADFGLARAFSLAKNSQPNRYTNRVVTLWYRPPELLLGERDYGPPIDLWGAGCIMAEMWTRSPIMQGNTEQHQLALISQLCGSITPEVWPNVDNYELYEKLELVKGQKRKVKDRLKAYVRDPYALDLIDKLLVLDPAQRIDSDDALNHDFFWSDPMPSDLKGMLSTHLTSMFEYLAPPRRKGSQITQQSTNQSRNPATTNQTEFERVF
UniProt O96017, whole entry: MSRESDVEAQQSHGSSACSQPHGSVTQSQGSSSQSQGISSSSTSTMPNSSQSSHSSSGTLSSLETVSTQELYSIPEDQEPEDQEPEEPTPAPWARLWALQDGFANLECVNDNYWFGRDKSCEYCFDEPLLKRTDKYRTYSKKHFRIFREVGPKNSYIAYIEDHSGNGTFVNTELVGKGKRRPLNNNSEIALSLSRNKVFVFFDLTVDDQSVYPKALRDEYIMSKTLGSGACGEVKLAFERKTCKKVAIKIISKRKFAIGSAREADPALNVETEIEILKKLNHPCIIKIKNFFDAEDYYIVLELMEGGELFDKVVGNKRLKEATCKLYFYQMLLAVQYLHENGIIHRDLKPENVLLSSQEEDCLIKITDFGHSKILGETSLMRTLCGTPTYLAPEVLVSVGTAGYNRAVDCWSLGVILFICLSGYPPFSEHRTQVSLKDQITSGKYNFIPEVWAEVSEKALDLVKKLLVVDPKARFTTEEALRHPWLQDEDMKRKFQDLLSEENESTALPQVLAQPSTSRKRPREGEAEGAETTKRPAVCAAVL
UniProt P07333, whole entry: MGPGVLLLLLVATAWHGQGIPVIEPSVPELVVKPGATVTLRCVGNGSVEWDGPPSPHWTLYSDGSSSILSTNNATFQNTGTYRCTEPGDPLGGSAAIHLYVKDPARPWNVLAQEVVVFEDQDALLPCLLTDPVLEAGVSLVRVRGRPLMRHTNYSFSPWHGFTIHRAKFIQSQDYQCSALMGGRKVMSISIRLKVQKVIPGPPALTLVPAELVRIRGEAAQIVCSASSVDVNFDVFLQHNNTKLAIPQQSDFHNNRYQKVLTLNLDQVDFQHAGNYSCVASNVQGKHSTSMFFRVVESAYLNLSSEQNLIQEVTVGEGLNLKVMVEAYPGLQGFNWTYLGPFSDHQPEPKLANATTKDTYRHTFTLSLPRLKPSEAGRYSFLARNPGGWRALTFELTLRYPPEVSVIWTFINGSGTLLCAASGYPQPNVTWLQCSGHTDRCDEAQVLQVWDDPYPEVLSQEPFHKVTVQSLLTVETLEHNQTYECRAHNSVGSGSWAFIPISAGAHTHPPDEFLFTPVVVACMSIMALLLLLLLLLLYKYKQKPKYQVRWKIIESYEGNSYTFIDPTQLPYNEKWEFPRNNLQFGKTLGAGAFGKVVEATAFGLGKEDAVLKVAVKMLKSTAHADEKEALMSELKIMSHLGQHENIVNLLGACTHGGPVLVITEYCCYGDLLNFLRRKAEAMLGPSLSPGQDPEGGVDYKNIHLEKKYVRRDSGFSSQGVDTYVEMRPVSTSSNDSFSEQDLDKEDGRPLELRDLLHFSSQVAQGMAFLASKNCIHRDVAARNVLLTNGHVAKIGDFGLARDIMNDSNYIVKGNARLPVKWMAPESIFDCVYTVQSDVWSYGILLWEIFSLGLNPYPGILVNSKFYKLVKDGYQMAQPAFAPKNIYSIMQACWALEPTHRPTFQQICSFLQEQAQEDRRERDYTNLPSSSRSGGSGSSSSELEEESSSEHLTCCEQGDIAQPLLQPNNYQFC
UniProt P41240: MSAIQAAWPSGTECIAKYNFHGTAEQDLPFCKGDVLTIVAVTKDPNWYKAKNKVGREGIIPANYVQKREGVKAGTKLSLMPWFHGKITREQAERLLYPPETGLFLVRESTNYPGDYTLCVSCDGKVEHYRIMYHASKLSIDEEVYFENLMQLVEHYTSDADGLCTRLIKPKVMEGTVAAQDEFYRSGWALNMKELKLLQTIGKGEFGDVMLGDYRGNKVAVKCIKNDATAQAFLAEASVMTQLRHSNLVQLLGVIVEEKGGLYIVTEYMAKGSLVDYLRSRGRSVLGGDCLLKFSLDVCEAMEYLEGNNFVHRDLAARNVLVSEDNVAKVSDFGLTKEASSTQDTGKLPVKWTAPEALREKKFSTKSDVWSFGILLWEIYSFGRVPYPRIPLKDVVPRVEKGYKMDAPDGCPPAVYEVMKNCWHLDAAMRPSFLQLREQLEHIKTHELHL
UniProt P48729: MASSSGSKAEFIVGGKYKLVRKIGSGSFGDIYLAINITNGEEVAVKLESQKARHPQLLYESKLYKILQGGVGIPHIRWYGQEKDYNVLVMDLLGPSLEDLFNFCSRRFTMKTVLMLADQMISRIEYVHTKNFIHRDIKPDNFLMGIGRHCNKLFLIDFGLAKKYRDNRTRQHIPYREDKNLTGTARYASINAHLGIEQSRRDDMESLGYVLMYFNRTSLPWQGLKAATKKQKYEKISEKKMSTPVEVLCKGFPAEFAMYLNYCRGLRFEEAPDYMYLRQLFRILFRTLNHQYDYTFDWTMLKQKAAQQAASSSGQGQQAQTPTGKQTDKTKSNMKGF
UniProt P48730: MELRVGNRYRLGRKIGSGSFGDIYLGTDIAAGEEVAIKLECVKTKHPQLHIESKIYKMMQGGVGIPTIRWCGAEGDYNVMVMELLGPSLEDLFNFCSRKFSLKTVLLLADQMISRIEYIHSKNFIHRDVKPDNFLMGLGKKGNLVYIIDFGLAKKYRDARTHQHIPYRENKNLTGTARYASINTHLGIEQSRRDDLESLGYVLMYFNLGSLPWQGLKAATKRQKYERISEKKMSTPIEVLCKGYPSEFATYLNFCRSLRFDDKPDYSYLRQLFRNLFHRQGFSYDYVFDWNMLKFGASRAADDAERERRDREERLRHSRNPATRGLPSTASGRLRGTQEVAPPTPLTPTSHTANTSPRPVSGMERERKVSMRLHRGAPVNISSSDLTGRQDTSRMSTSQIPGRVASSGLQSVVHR
UniProt Q08345: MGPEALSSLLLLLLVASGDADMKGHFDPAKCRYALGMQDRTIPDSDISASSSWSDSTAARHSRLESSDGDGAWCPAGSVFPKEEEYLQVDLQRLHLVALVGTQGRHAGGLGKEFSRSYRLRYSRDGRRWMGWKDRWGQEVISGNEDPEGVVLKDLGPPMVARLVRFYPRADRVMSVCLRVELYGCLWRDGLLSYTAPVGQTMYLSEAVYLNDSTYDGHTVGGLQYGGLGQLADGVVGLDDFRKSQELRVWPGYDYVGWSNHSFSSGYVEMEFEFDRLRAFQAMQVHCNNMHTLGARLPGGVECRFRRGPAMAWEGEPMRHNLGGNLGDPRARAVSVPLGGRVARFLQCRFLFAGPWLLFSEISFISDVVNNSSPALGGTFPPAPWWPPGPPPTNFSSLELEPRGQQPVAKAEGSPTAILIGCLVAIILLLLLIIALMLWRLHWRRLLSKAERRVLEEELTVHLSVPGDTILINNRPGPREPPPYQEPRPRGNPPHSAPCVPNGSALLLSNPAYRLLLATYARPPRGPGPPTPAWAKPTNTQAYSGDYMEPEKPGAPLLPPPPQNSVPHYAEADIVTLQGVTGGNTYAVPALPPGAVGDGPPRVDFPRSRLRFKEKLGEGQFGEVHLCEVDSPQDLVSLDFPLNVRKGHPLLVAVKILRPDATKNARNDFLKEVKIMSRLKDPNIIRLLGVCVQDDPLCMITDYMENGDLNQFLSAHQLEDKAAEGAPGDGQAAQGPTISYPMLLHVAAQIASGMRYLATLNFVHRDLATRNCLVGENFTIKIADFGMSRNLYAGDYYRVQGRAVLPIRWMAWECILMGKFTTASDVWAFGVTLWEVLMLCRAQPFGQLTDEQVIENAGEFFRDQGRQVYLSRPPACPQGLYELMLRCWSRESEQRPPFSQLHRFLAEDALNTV
UniProt Q9Y463, whole entry, looked up: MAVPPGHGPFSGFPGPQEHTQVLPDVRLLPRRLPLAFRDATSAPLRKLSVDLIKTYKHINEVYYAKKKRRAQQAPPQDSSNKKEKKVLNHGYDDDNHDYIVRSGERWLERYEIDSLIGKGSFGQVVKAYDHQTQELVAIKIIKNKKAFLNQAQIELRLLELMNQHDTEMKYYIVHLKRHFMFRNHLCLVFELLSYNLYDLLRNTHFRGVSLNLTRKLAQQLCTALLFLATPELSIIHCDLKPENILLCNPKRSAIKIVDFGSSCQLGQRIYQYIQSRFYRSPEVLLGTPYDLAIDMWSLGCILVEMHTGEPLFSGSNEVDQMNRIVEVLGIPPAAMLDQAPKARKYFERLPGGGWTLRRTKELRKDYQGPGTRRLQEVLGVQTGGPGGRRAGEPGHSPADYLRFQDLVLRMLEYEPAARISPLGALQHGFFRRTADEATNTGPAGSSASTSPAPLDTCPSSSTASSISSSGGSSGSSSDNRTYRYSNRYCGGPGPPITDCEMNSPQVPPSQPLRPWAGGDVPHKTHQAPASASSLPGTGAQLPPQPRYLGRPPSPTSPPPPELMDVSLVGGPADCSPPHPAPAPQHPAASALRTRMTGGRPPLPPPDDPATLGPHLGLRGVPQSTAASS
UniProt Q92630: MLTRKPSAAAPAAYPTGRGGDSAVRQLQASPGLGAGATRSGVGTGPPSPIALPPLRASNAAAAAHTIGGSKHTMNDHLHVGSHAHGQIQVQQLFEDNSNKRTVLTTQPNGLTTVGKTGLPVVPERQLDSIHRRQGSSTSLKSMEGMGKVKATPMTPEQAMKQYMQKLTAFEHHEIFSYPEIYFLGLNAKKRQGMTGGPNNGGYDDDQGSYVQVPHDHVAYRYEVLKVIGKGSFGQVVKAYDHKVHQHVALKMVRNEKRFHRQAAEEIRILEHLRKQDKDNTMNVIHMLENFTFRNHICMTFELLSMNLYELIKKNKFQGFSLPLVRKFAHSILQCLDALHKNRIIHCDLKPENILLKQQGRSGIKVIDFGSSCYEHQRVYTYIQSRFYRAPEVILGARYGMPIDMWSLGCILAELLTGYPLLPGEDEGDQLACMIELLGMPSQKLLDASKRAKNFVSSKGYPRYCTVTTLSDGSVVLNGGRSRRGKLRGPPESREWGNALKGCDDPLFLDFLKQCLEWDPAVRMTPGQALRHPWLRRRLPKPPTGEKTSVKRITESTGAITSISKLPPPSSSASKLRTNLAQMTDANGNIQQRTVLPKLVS

Measured: kinase-Nluc reporter destabilization hit call

O=C(Nc1nc2ccccc2[nH]1)c1cccc(-n2cccc2)c1 (10 µM)
inactive: [1] 0 | [2] 0 | [3] 0 | [4] 0 | [5] 0 | [6] 0 | [7] 0 | [8] 0 | [9] 0 | [10] 0

Cn1cc(Nc2nccc(N3C[C@H]4CC[C@@H](C3)N4C(=O)[C@@H]3CC3(F)F)n2)cn1 (10 µM)
inactive: [1] 0 | [2] 0 | [3] 0 | [4] 0 | [5] 0 | [6] 0 | [7] 0 | [8] 0 | [9] 0 | [10] 0

OC(COc1ccc(C(F)(F)F)cc1)CN(Cc1ccccc1)Cc1ccccc1 (stereo not given) (2.5 µM)
inactive: [1] 0 | [2] 0 | [3] 0 | [4] 0 | [5] 0 | [6] 0 | [7] 0 | [8] 0 | [9] 0 | [10] 0

2 compounds drawn at random from those above:
O=C(Nc1nc2ccccc2[nH]1)c1cccc(-n2cccc2)c1 (10 µM)
inactive: [1] 0 | [2] 0 | [3] 0 | [4] 0 | [5] 0 | [6] 0 | [7] 0 | [8] 0 | [9] 0 | [10] 0

Cn1cc(Nc2nccc(N3C[C@H]4CC[C@@H](C3)N4C(=O)[C@@H]3CC3(F)F)n2)cn1 (10 µM)
inactive: [1] 0 | [2] 0 | [3] 0 | [4] 0 | [5] 0 | [6] 0 | [7] 0 | [8] 0 | [9] 0 | [10] 0

Remaining list, next part

N#Cc1cccc(-c2c[nH]c3ncnc(N4CCOCC4)c23)c1 (10 µM)
inactive: [1] 0 | [2] 0 | [3] 0 | [4] 0 | [5] 0 | [6] 0 | [7] 0 | [8] 0 | [9] 0 | [10] 0

COc1cccc(-n2c(=O)[nH]c3cc(Cl)n(-c4ccc(-c5cccc(OC)c5O)cc4)c3c2=O)c1 (2.5 µM)
inactive: [1] 0 | [2] 0 | [3] 0 | [4] 0 | [5] 0 | [6] 0 | [7] 0 | [8] 0 | [9] 0 | [10] 0

O=C(/C=C/c1ccc(O)c(O)c1)c1ccc(O[C@@H]2O[C@H](CO)[C@@H](O)[C@H](O)[C@H]2O)c(O)c1O [Marein] (10 µM)
inactive: [1] 0 | [2] 0 | [3] 0 | [4] 0 | [5] 0 | [6] 0 | [7] 0 | [8] 0 | [9] 0 | [10] 0

O=C1c2ccc(Nc3ccc(F)cc3F)cc2CCc2ccc(OC[C@H](O)CO)cc21 [Skepinone-L] (2.5 µM)
inactive: [1] 0 | [2] 0 | [3] 0 | [4] 0 | [5] 0 | [6] 0 | [7] 0 | [8] 0 | [9] 0 | [10] 0

CCN(CC)S(=O)(=O)c1ccc(OC)c(N2CCN(C(=O)c3ccc(F)cc3C(F)(F)F)CC2)c1 (10 µM)
inactive: [1] 0 | [2] 0 | [3] 0 | [4] 0 | [5] 0 | [6] 0 | [7] 0 | [8] 0 | [9] 0 | [10] 0

CNC(=O)c1ccc(-c2cnc3cnc(C(=O)N(C)c4ccc(Cl)cc4)cn23)cc1 (2.5 µM)
inactive: [1] 0 | [2] 0 | [3] 0 | [4] 0 | [5] 0 | [6] 0 | [7] 0 | [8] 0 | [9] 0 | [10] 0

O=C(/C=C/c1ccc(O)c(O)c1)OC1CC(OC(=O)/C=C/c2ccc(O)c(O)c2)(C(=O)O)CC(O)C1O (stereo not given) [1,3-Dicaffeoylquinic acid] (10 µM)
inactive: [1] 0 | [2] 0 | [3] 0 | [4] 0 | [5] 0 | [6] 0 | [7] 0 | [8] 0 | [9] 0 | [10] 0

Cn1nccc1Nc1nccc(-c2cc3c(s2)C(C)(C)N(CCN2CCOCC2)C3=O)n1 (10 µM)
inactive: [1] 0 | [2] 0 | [3] 0 | [4] 0 | [5] 0 | [6] 0 | [7] 0 | [8] 0 | [9] 0 | [10] 0

Cc1cc2cc(Nc3ccnc(Nc4ccc5[nH]c(C)cc5c4)n3)ccc2[nH]1 (2.5 µM)
inactive: [1] 0 | [2] 0 | [3] 0 | [4] 0 | [5] 0 | [6] 0 | [7] 0 | [8] 0 | [9] 0 | [10] 0

Cc1cc(Nc2cc3ncccc3c(N[C@@H]3C[C@H]4CC[C@@H](C3)N4CCC#N)n2)n[nH]1 [Izencitinib] (10 µM)
inactive: [1] 0 | [2] 0 | [3] 0 | [4] 0 | [5] 0 | [6] 0 | [7] 0 | [8] 0 | [9] 0 | [10] 0

O=C(NCCCNC(=O)Nc1cccc(C2=NCCN2)c1)Nc1cccc(C2=NCCN2)c1 [p32 Inhibitor M36] (10 µM)
inactive: [1] 0 | [2] 0 | [3] 0 | [4] 0 | [5] 0 | [6] 0 | [7] 0 | [8] 0 | [9] 0 | [10] 0

C[C@]1(O)CCC[C@@H]1n1c(=O)c(C(F)F)cc2cnc(NC3CCN(S(C)(=O)=O)CC3)nc21 (10 µM)
inactive: [1] 0 | [2] 0 | [3] 0 | [4] 0 | [5] 0 | [6] 0 | [7] 0 | [8] 0 | [9] 0 | [10] 0

COc1ccc(CC(=O)Nc2nc3c(s2)CCc2ccccc2-3)cc1OC (10 µM)
inactive: [1] 0 | [2] 0 | [3] 0 | [4] 0 | [5] 0 | [6] 0 | [7] 0 | [8] 0 | [9] 0 | [10] 0

CCOc1cc(C(=O)N2CCC(N3CCN(C)CC3)CC2)ccc1Nc1ncc2c(n1)N(C1CCCC1)c1ccccc1C(=O)N2C (10 µM)
inactive: [1] 0 | [2] 0 | [3] 0 | [4] 0 | [5] 0 | [6] 0 | [7] 0 | [8] 0 | [9] 0 | [10] 0

O=C(O)CCc1ccc(O)c(O)c1 [Dihydrocaffeic acid] (10 µM)
inactive: [1] 0 | [2] 0 | [3] 0 | [4] 0 | [5] 0 | [6] 0 | [7] 0 | [8] 0 | [9] 0 | [10] 0

CC(=NNC(=O)c1ccc(C)c(Br)c1)c1ccc(O)cc1O [mTOR inhibitor-1] (2.5 µM)
inactive: [1] 0 | [2] 0 | [3] 0 | [4] 0 | [5] 0 | [6] 0 | [7] 0 | [8] 0 | [9] 0 | [10] 0

Source: the supplement of paper PMC12823440, “Inhibitors supercharge kinase turnover through native proteolytic circuits” (Nature, 2025)
